From patent US20070208015A1, “5-Morpholinylmethylthiophenyl Pharmaceutical Compounds As P38 MAP Kinase Modulators” (ASTEX THERAPEUTICS, LTD., priority 2004, published 2007)
pIC50: −log10 of the molar value. Some results were stated once for a whole list of compounds, not compound by compound.

Protein sequences, listed by entry. Tags and fused reporters are not part of them.
UniProt Q16539, whole entry: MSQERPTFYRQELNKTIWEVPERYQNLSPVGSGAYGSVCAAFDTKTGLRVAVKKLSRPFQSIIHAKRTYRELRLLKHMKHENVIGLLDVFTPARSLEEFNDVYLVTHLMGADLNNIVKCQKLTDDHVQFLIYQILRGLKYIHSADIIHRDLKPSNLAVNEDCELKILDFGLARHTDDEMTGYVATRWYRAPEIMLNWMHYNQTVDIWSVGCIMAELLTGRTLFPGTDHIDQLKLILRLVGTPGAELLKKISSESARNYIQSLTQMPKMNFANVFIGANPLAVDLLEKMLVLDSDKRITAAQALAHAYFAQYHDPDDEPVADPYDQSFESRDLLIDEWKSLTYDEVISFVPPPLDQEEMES
UniProt P04049, whole entry Y340D/Y341D: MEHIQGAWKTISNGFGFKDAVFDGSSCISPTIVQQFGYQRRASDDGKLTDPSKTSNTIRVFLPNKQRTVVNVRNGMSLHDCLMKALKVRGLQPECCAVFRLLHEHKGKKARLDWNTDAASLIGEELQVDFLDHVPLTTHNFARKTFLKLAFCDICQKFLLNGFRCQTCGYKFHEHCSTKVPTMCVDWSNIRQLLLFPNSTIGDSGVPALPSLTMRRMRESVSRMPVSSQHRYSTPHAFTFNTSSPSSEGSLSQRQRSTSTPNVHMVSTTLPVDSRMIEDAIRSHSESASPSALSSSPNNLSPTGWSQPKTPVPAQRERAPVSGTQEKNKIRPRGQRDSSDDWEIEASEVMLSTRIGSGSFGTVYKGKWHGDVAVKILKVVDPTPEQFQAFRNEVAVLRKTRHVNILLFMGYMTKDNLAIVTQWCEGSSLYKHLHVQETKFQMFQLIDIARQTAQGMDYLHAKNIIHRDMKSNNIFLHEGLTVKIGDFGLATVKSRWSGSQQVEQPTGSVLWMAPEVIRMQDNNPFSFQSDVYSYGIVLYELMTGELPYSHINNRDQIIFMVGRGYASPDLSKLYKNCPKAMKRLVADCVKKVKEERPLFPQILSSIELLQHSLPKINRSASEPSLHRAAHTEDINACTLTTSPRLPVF

Experiments:
[1] = biological target: α isoform of p38 MAP kinase (Homo sapiens, UniProt Q16539); assay: p38 MAP kinase inhibitory activity (33P-ATP / myelin basic protein filter assay); format: biochemical; settings: p38α activated with MKK6; substrate MBP; 1.5 hours pre-incubation with compound; read-out: IC50, concentration of test compound required to inhibit 50% of the p38 activity
Human c-raf = Human c-raf (Homo sapiens, UniProt P04049); assay: C-raf kinase inhibitory activity (33P-ATP / myelin basic protein filtermat assay); format: biochemical; settings: substrate myelin basic protein; 40 minutes at room temperature; read-out: IC50, concentration of test compound required to inhibit 50% of the C-raf kinase activity

Cc1c(NC(=O)c2cc(F)cc(N3CCOCC3)c2)sc(CN2CCOCC2)c1Cl [Example 1]
pIC50 [1]: > 5.30
pIC50 (Human c-raf): > 4.60

Cc1c(NC(=O)Nc2cc(C(C)(C)C)nn2-c2ccc(F)cc2)sc(CN2CCOCC2)c1Cl [Example 2, 1-[5-tert-butyl-2(4-fluoro-phenyl)-2H-pyrazol-3-yl]-3-(4-chloro-3-methyl-5-morpholin-4-ylmethyl-thiophen-2-yl)urea]
pIC50 [1]: > 5.30
pIC50 (Human c-raf): > 6.00

Cc1c(NC(=O)Nc2cc(C(C)(C)C)nn2-c2ccc(F)cc2F)sc(CN2CCOCC2)c1Cl [Example 3, 1-[5-tert-Butyl-2-(2,4-difluoro-phenyl)-2H-pyrazol-3-yl]-3-(4-chloro-3-methyl-5-morpholin-4-ylmethyl-thiophen-2-yl)-urea]
pIC50 [1]: > 5.30
pIC50 (Human c-raf): > 6.00

Cc1c(NC(=O)Nc2nnc(C3CCCO3)s2)sc(CN2CCOCC2)c1Cl (centres unmarked) [Example 4, 1-(4-Chloro-3-methyl-5-morpholin-4-ylmethyl-thiophen-2-yl)-3-[5-(tetrahydro-furan-2-yl)-[13,4]thiadiazol-2-yl]-urea]
pIC50 [1]: > 5.30
pIC50 (Human c-raf): > 4.60
